Assay results published in US20200063100A1 (CRISPR THERAPEUTICS, published 2020).

By UniProt entry, the sequences of proteins in these tests, tags left out. Residues count along the entry.
UniProt P20138, 18-259 limits assumed: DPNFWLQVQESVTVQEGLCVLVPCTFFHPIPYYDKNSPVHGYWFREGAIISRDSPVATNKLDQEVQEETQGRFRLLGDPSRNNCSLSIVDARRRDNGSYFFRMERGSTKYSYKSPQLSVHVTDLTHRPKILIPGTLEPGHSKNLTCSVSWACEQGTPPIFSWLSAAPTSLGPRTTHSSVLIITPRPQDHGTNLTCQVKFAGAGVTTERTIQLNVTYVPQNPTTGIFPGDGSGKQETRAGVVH

Target: biotinylated recombinant human CD33 (human, UniProt P20138 18-259, limits assumed, biotinylated)
Assay: flow cytometry, CAR T cells stained with biotinylated antigen

binding result: binds
B1: anti-CD33 CAR (41BB costim.), expressed on gene-edited human T cells (other)
chain: EIVLTQSPGSLAVSPGERVTMSCKSSQSVFFSSSQKNYLAWYQQIPGQSPRLLIYWASTRESGVPDRFTGSGSGTDFTLTISSVQPEDLAIYYCHQYLSSRTFGQGTKLEIKGGGGGSGGGGSGGGGSQVQLQQPGAEVVKPGASVKMSCKASGYTFTSYYIHWIKQTPGQGLEWVGVIYPGNDDISYNQKFQGKATLTADKSSTTAYMQLSSLTSEDSAVYYCAREVRLRYFDVWGQGTTVTVSSSAAAFVPVFLPAKPTTTPAPRPPTPAPTIASQPLSLRPEACRPAAGGAVHTRGLDFACDIYIWAPLAGTCGVLLLSLVITLYCNHRNRKRGRKKLLYIFKQPFMRPVQTTQEEDGCSCRFPEEEEGGCELRVKFSRSADAPAYQQGQNQLYNELNLGRREEYDVLDKRRGRDPEMGGKPRRKNPQEGLYNELQKDKMAEAYSEIGMKGERRRGKGHDGLYQGLSTATKDTYDALHMQALPPR
